In PubChem BioAssay AID1117319 (Southern Research Institute, 2015):
About 1,500 (0.58%) of roughly 260,000 compounds were called active. The shares of active, inactive and inconclusive entries below differ from those in the screen.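 How the source made its calls: active means inhibition above a set limit at one or more doses, reproduced on every date tested; inconclusive means results disagree between test dates, or hit never tested in dose response; inactive means the rest.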

Protein sequences, listed by entry. Tags and fused reporters are not part of them. Lines headed by an entry give the natural chain unless they say otherwise; changes in a name come on top.
UniProt P69720: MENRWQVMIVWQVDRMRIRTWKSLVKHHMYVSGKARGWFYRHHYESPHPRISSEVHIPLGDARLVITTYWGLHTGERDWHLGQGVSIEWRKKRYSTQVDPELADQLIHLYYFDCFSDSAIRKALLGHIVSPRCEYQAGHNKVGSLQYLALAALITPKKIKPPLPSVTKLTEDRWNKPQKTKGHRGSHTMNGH
UniProt P69721: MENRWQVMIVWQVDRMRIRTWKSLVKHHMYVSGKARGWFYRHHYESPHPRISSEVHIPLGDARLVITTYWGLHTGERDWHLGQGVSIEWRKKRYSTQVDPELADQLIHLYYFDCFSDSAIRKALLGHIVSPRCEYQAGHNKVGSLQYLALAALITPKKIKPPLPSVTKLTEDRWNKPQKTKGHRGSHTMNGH
UniProt P69722: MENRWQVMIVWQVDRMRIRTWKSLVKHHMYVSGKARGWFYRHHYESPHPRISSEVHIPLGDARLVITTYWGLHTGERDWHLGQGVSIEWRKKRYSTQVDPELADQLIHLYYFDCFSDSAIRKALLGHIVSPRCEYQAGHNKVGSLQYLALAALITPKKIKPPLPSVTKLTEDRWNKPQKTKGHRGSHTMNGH
UniProt P69723: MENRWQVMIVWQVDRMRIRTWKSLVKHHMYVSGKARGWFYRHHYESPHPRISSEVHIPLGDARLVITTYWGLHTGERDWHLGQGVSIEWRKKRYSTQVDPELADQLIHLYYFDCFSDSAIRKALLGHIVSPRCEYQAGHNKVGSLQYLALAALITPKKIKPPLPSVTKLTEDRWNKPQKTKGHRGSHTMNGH
UniProt Q9HC16: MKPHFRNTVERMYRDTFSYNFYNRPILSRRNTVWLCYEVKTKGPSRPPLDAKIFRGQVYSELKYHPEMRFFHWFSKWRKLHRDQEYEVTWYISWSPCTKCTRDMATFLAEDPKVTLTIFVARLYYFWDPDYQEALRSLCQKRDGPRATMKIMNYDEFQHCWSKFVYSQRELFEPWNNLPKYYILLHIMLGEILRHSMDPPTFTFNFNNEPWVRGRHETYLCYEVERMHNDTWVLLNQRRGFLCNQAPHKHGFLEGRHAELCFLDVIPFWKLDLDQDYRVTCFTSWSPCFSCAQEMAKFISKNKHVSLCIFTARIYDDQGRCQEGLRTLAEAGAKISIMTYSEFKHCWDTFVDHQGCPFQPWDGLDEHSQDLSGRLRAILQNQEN

target: Virion infectivity factor (Human immunodeficiency virus type 1 group M subtype B (isolate BH10)) + Virion infectivity factor (Human immunodeficiency virus type 1 group M subtype B (isolate BRU/LAI)) + Virion infectivity factor (Human immunodeficiency virus type 1 group M subtype B (isolate PCV12)) + Virion infectivity factor (Human immunodeficiency virus type 1 group M subtype B (isolate HXB2)) + DNA dC->dU-editing enzyme APOBEC-3G (Homo sapiens) (UniProt P69720+P69721+P69722+P69723+Q9HC16); assay: inhibitors of Vif binding to APOBEC3G peptide, primary screen, biochemical, TR-FRET, GST-Vif 1-94, biotin-A3G peptide, dose response retest (AID 1117319); details: active compounds read high;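 further: Vif residues 1-94 fused to GST binding biotinylated APOBEC3G peptide 110-148; 0% = full assay without inhibitor and 100% = GST in place of GST-Vif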

Structure (SMILES) | inhibition
CN(Cc1ccccc1)S(=O)(=O)c1cccc2cccnc12 | inconclusive: 62%
COc1ccc(S(=O)(=O)CC(=O)Nc2ccccc2Cl)cc1 | inconclusive: 38%
COc1cccc(Nc2ncccc2C(=O)O)c1 | inconclusive: 46.1%
O=C(COc1cc(Cl)c(Cl)cc1Cl)NC(=O)Nc1ccc2c(c1)OCCO2 | inconclusive: 42.4%
O=C(O)/C=C\C(=O)Nc1ccc(N2CCN(c3cccc(Cl)c3)CC2)cc1 | inconclusive: 37.2%
CCCNc1c(F)c(F)c2c(C)c3ccccc3nc2c1F | inconclusive: 60.3%
Cc1ccc(-n2nc(C)c3c(C)c(CCC(=O)NC(C)c4ccccc4)c(C)nc32)cc1 (stereo not drawn) | inconclusive: 30.4%
CCN(CC)C(=O)c1cc(-c2ccc(Br)cc2)on1 | inconclusive: 41.4%
COc1ccc(N2CCN(C(=O)CN(c3ccc(Br)cc3)S(C)(=O)=O)CC2)cc1 | inconclusive: 36.6%
NNC(=O)CNc1cccc(Br)c1 | inconclusive: 49.7%
COc1ccc2nc(C)cc(C(=O)O)c2c1 | inconclusive: 39.7%
C=CCc1cc(C=O)cc(OC)c1OCc1c(Cl)cccc1Cl | inconclusive: 32.4%
CC1=C/C(=N\NC(=O)c2cccs2)CC(C)(C)C1 | inconclusive: 37.9%
CC(C)c1cc(C(=O)OCC(=O)NC2CC2)c(O)c(C(C)C)c1 | inactive: 1.52%
CC(C)c1ccc(C(=O)N2CCN(c3cnn(C)c(=O)c3Cl)CC2)cc1 | inconclusive: 56.9%
COc1ccc(C(=O)NNS(=O)(=O)c2ccc(C)cc2)cc1 | inconclusive: 43.3%
Cc1ccccc1/C=N/NC(=O)CSc1nc2ccccc2o1 | inconclusive: 47.7%
CCc1nnc(NS(=O)(=O)c2ccc(NC(=S)Nc3ccc(F)cc3)cc2)s1 | inactive: -0.27%
CCOc1ccc(-n2c(Cc3cc(=O)[nH]c(=O)[nH]3)nnc2SCC(=O)OC)cc1 | inconclusive: 44.4%
CN1CCN(C(=O)C2=C[C@@H](C3CC3)C[C@@H](OCc3ccc(CO)cc3)O2)CC1 | inconclusive: 44.5%

Shown with tabs: 3 of the compounds above.
Structure (SMILES)	inhibition
O=C(O)/C=C\C(=O)Nc1ccc(N2CCN(c3cccc(Cl)c3)CC2)cc1	inconclusive: 37.2%
CCCNc1c(F)c(F)c2c(C)c3ccccc3nc2c1F	inconclusive: 60.3%
Cc1ccc(-n2nc(C)c3c(C)c(CCC(=O)NC(C)c4ccccc4)c(C)nc32)cc1 (stereo not drawn)	inconclusive: 30.4%

(list continues)

Structure (SMILES) | inhibition
COc1cccc(/C=N/N2CCOCC2)c1O | inactive: 2.44%
COC(=O)C1CCN(CC(=O)NC(=O)NC2CCCCC2)CC1 | inconclusive: 34.7%
Cc1c(Cl)cccc1NC(=O)CCCN1C(=O)c2cccnc2C1=O | inconclusive: 37.4%
COc1ccc(N=Nc2c(N)n[nH]c2N)cc1 | inconclusive: 33.6%
CCN(C(=O)COC(=O)COc1ccccc1Cl)c1c(N)n(Cc2ccccc2)c(=O)[nH]c1=O | inconclusive: 42.4%
COc1ccccc1CC(NC(C)=O)C(=O)NC1CCN(C(=O)Nc2ccccc2Cl)CC1 (stereo not drawn) | inconclusive: 37.8%
CCC(COC(C)=O)Nc1nc2c([nH]1)c(=O)n(C)c(=O)n2C (stereo not drawn) | inconclusive: 42.6%
O=C(NCCCn1ccnc1)/C(=C/c1ccc(F)cc1)NC(=O)c1ccccc1 | inconclusive: 60.2%
O=C(/C=C/c1ccco1)Nc1cccc2cccnc12 | inconclusive: 64.2%
COc1ccc(S(=O)(=O)N(C)C)cc1NC(=O)CSc1nnc(-c2cccnc2)o1 | inconclusive: 58.6%
CCOc1ccc(C(=O)Nc2ccc(NC(=O)c3ccco3)c(Cl)c2)cc1Br | inconclusive: 51.2%
O=C(O)c1ccc(Cn2ccc3ccccc32)o1 | inconclusive: 54%
CCC(=O)N1CCN(c2ccccc2NC(=O)c2ccc(OC)c(Cl)c2)CC1 | inconclusive: 47.9%
CCN(CC)C(=O)COC(=O)C1CCN(S(=O)(=O)c2ccc3c(c2)OCCO3)CC1 | inconclusive: 44.1%
COc1ccc(C2C(C#N)=C(N)N(c3ccccc3)C3=C2C(=O)CCC3)cc1Cn1cc([N+](=O)[O-])cn1 (stereo not drawn) | inconclusive: 37.5%
Cc1occc1C(=O)Nc1nccs1 | inconclusive: 36.1%
CCOc1ccc(N/C(C)=C/C(=O)c2ccc(C)o2)cc1 | inactive: 1.46%
Cc1cccc(NC(=O)N2CCCC2C(=O)Nc2ccccc2)c1 (stereo not drawn) | inconclusive: 46.4%
CCN1CC=C2C(C#N)=C(N)C(C#N)(C#N)[C@H](c3ccoc3)[C@H]2C1 | inconclusive: 43%
COc1ccc(OC)c(NC(=O)c2ccccc2N(Cc2ccccc2)S(C)(=O)=O)c1 | inactive: 7.69%

Structure (SMILES) | inhibition
CC(C)(C)CC(=O)O/N=C(\N)c1ccccn1 | inconclusive: 39.7%
O=C(C1=C(O)C(=O)N(CCOCCO)C1c1cccs1)c1cccs1 (stereo not drawn) | inconclusive: 39.1%
Cc1cc(C)c(C#N)c(SCC(=O)c2cc(C)n(CCc3ccccc3)c2C)n1 | inconclusive: 45.9%
Cc1cc(C)c2c(=O)cc(C(F)F)oc2c1 | inconclusive: 48.8%
CC[N+]1(CC)CC2=Cc3ccccc3CC2C1 (stereo not drawn) | inconclusive: 41%
Cc1ccc(-c2cc(C(=O)N/N=C/C(Br)=C/c3ccccc3)n[nH]2)o1 | inactive: 27.2%
CC(OC(=O)c1n[nH]c2ccccc12)C(=O)NC1CCCCC1C (stereo not drawn) | inactive: 1.37%
C=C1C2(C(=O)Nc3ccc(SC(F)F)cc3)CCC(C2)C1(C)C (stereo not drawn) | inconclusive: 38.5%
COc1ccc(Cl)cc1NC(=O)N1CCN(c2ccccc2OC)CC1 | inconclusive: 63.7%
NC(=S)NC1CCS(=O)(=O)C1 (stereo not drawn) | inconclusive: 47.2%
Cc1nc(SCC(=O)Nc2cc(C)on2)c2c(=O)n(C)c(=O)n(C)c2n1 | inconclusive: 49.4%
Cc1ccc(S(=O)(=O)NC2c3cccc4cccc(c34)C2Sc2nncn2C)cc1 (stereo not drawn) | inconclusive: 42.2%
COc1ccc2c(CCNC(=O)c3ccc([N+](=O)[O-])cc3)c[nH]c2c1 | inconclusive: 41.9%
CC(C)COc1ccccc1C(=O)NC(CO)C(=O)O (stereo not drawn) | inconclusive: 43.9%
O=C(COC(=O)c1ccc(S(=O)(=O)Nc2ccccc2)cc1)NC1CCCC1 | inconclusive: 34%
Cc1cc(/C=C2\C(=N)N3N=CSC3=NC2=O)c(C)n1Cc1ccccc1 | inconclusive: 40.5%
N#CC(C#N)=Cc1cccn1-c1ccc(S(N)(=O)=O)cc1 | inactive: -2.79%
CCOC(=O)N1CCC(NCCNC(=O)c2cccs2)CC1 | inconclusive: 55.1%
